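Whole-cell assay for inhibitors of Mycobacterium tuberculosis growth, labelled Cornell in the record; the read-out is not stated. The concentration is filed as 10 mM, unlikely as a test dose, so the dose is not known. The record gives no direction; compounds strong in two other growth screens of this library score well above the rest, so higher reads as stronger inhibition. Size under these conditions: about 53,000 compounds, about 900 of them at 50% or above in at least one test.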

Results are given as percent effect.
The record does not define 0% and 100%; most values in the screen are far below 50% and negative numbers occur (in some assays of this library far below -100).
This is an unselected part of the compounds tested.

Compound,effect
Cc1ccc(-n2c(COC(C)C)n[nH]c2=O)cc1,-3.817%
CC(C)NC(=O)c1nn(C)c(NC(=O)Cc2ccccc2)c1F,37.29%
O=C(C1CC1)N1CCc2[nH]cnc2C12CCN(C1CCOCC1)CC2,7.525%
Cc1nnn2c1COCC(CNC(=O)c1ccc3[nH]ccc3c1)C2 (centres undefined),11.31%
CCOc1ccc(Cl)cc1C(C(=O)O)N1CCCC1 (centres undefined),-26.82%
Cc1cc(CNc2ccc(C(=O)N3CCc4ccccc43)cn2)on1,22.59%
Cc1ccc2nc(-c3cnc(N)nc3)cc(C(=O)N(C)C)c2c1,-40.62%
Cc1nnc(SCC(=O)N2CCC3(CC2)c2ccccc2CC3O)o1 (centres undefined),-6.008%
Cc1csc(N2CCN(Cc3cscn3)CC2C)n1 (centres undefined),-20.1%
O=C(O)C(F)(F)F.[H][C@]12CCN(c3ncc(F)cn3)[C@@]1([H])CC[C@H](COCc1cccnc1)O2,21.98%
COc1ccnc(N2CCN(C(=O)c3csc(C4CC4)n3)CC2)n1,16.66%
Cc1cc(C(=O)N(C)S(C)(=O)=O)ccc1F,5.164%
CCn1cnnc1CNC(=O)Cc1ccc2c(c1)OCCO2,8.607%
Cc1ccc(C(=O)N2CCC3(CCC(=O)N(C(C)C)C3)CC2)c(O)c1,-26.22%
CCOC1CC2(CCN(c3cnccn3)CC2)c2ccccc21 (centres undefined),32.32%
O=C1CCN(C(=O)C2(c3ccc(F)cc3)CCOCC2)CCN1,9.104%
COc1ccccc1CN(Cc1nc2c(cnn2C)c(=O)[nH]1)C1CC1,-17.44%
CC(C)c1ocnc1C(=O)Nc1cccc(Cn2ccccc2=O)c1,-22.76%
CNS(=O)(=O)CC(=O)N1CCC(c2ccc(F)c(F)c2)CC1,17.16%
c1cc(-c2ccc3c(c2)C2(CCNCC2)CC3)ccn1,-7.203%
O=C(NC1CCCC1)c1nc(COc2ccc3c(c2)OCO3)no1,7.376%
CCn1nc(CC(C)C)cc1C(=O)NCCn1cccc1,5.885%
CNS(=O)(=O)CCN1CC(c2ccccc2)(c2ccccc2)CCC1=O,-11.13%
CC(C)(C)c1cn2nc(N3CCC[C@@H]3CO)sc2n1,-2.663%
Cc1nc2c(c(C)c1CC(=O)Nc1ccc(Cl)cc1)c(=O)[nH]n2C,30.03%
Cn1ccc(NC(=O)CN2CCN(C3CCCC3)C(=O)C2)n1,47.35%
O=C(O)C(F)(F)F.O=C(O)C(F)(F)F.[H][C@@]12CCC(=O)N(CC3CC3)[C@]1([H])CCN2Cc1ccccn1,21.65%
OC1COCCN(Cc2cccc(N3CCOCC3)c2)C1 (centres undefined),-20.97%
NC(=O)c1cc(C2CCCN(C(=O)CCc3ccsc3)C2)n[nH]1 (centres undefined),14%
CCS(=O)(=O)NC(CCSC)C(=O)Nc1ccc(C)cc1C (centres undefined),-18.26%
COC1(CNC(=O)NCCOc2ccccc2)CCSC1 (centres undefined),19.54%
CC(O)c1cccc(N2CCC3(CC2)Nc2ccccc2NC3=O)n1 (centres undefined),30.45%
CCCc1cc(C(=O)N(C)Cc2cccc3ncccc23)n(C)n1,13.78%
Cc1nc(C)n(CC2CCCN(Cc3noc(C)n3)C2)n1 (centres undefined),-36.71%
CC(C)(C)CC(NC(=O)N1CCC(C(N)=O)CC1)C(F)(F)F (centres undefined),8.767%
Cc1cccc2c1nc1n2[C@@H](CNC(=O)Cc2ccccc2)COC1,15.88%
Cc1ccsc1C(=O)N1CCCn2c(nc(CN(C)C)cc2=O)C1.O=C(O)C(F)(F)F,-5.917%
Cc1noc(C)c1CN1CCC(NC(=O)OC(C)(C)C)CC1,0.1402%
O=C(O)C(F)(F)F.O=C(O)C(F)(F)F.O=C(O)C(F)(F)F.[H][C@]12C[C@@H](Cn3cccn3)N(c3nccs3)[C@@]1([H])CCN(CC1CC1)C2,12.64%
CCC1CCCCN1C(=O)Cn1nc(-c2cc(C)oc2C)cc(N)c1=O (centres undefined),52.47%
Cc1nn(C)c2ncc(S(=O)(=O)N3CCCN4CCCC4C3)cc12 (centres undefined),22.95%
c1cncc(CN(Cc2ccc3c(c2)OCCO3)CC2CCCO2)c1 (centres undefined),30.15%
CS(=O)(=O)N1CCCCCC1c1cc(-c2ccc(F)cc2)no1 (centres undefined),7%
CC(=O)N1CCC2(CC1)CCN(C(=O)c1ccc(F)c(C(F)(F)F)c1)C2,23.21%
CC(=O)NCC1CCC2(CCN(c3ncnc4oc(C)nc34)CC2)O1 (centres undefined),-29.3%
COCCN1CCC2(CCC1=O)CN(c1ccnc(SC)n1)CCN2C (centres undefined),-0.741%
O=C(O)C(F)(F)F.O=C(O)C(F)(F)F.c1cnc2c(c1)CN(C1CCOC1)CCN2CC1CC1 (centres undefined),-16.79%
O=C(O)C(F)(F)F.O=C(O)C(F)(F)F.O=C(O)C(F)(F)F.c1cncc(CN2CCC3(COCCN(C4CCOCC4)C3)C2)c1 (centres undefined),12.64%
Cc1cc2ncn(C(=O)N3CCOCC3)c2cc1C,16.1%
O=C(CCN1CCCCO1)N1CCC(CO)(CCc2ccccc2)CC1,31.66%
NC(=O)CN(Cc1ncc(-c2ccc(F)cc2)o1)C1CCCC1,9.849%
COCc1noc(C2(c3ccc(F)cc3)CCC2)n1,-2.792%
Cc1nc(C)c(COc2ccc(N(C)S(C)(=O)=O)cc2)s1,34.05%
Cn1nnnc1SCC1(O)CCCCC1,-21.32%
CCN1CCN(C[C@@H]2CN(c3ncc(Cl)cc3F)C[C@@H]2CO)CC1,4.334%
Cc1ccc(OCC(=O)NCC(F)(F)F)nc1,4.144%
CN1CCCCC1c1cncc(Cl)n1.Cl (centres undefined),-6.877%
COc1ccc2c(c1)CCCN2C(=O)c1cccc(N(C)C)c1,13.26%
CC(C)C(=O)NCc1ccc(-n2cncn2)nc1,-16.8%
Cc1nc(C)n(CC2CN(CCc3ccccc3Cl)CCO2)n1 (centres undefined),-23.55%
CCN(CC(F)(F)F)C(=O)C1CCCN(Cc2cscn2)C1 (centres undefined),20.78%
COc1ccccc1-c1ccc(C2CCCN(C(C)=O)C2)nc1 (centres undefined),28.86%
Cc1c(F)cccc1S(=O)(=O)NC(C)(C)CN.Cl,19.43%
CCC(CC)S(=O)(=O)NC(=O)c1ccc2c(c1)ncn2C,-8.524%
COCCN1C[C@@H](C)[C@@]2(COCCN(C(=O)c3cccs3)C2)C1.O=C(O)C(F)(F)F,7.667%
CCOC(=O)[C@H]1[C@@H](O)C(=O)N(C)C12CCN(C(=O)CC(C)(C)C)CC2,8.53%
CC(C)(CNc1ccc2ccc(F)cc2n1)NS(C)(=O)=O,-11.1%
CS(=O)(=O)N1CCc2ccc(=O)n(CCN3CCCC3)c2CC1.O=C(O)C(F)(F)F,0.7729%
CC(=O)Nc1ccc(S(=O)(=O)Nc2c(F)cccc2F)cc1,-3.608%
CCS(=O)(=O)N1CCc2c(cccc2NC(=O)NCCO)C1,-55.66%
Cc1nc(CN2CCc3c(nc(C4CC4)n3C)C2)nc2ccccc12,13.28%
Cc1nc(N2CCN(C)CC2)ncc1C(=O)N1C[C@@H](C)[C@@](C)(O)C1,3.837%
CCc1noc(CN(Cc2cccs2)C2CC2)n1,16.99%
Cc1ccnc(NC(=O)C2CCN(CCCn3ccnc3)CC2)c1,12.77%
CC(C)C1CN(Cc2nccn2C)CCC(=O)N1CC1CC1 (centres undefined),10.97%
CN(Cc1ccsc1)C(=O)c1ccc(C2CCCO2)s1 (centres undefined),-18.15%
CNC(=O)COc1cccc(CNC(=O)c2c(C)noc2C(C)C)c1,-69.9%
COCCN1CCn2cc(CN(C)Cc3ccco3)nc2C1,27.43%

The last 7 entries again:

Compound	effect
Cc1nc(N2CCN(C)CC2)ncc1C(=O)N1C[C@@H](C)[C@@](C)(O)C1	3.837%
CCc1noc(CN(Cc2cccs2)C2CC2)n1	16.99%
Cc1ccnc(NC(=O)C2CCN(CCCn3ccnc3)CC2)c1	12.77%
CC(C)C1CN(Cc2nccn2C)CCC(=O)N1CC1CC1 (centres undefined)	10.97%
CN(Cc1ccsc1)C(=O)c1ccc(C2CCCO2)s1 (centres undefined)	-18.15%
CNC(=O)COc1cccc(CNC(=O)c2c(C)noc2C(C)C)c1	-69.9%
COCCN1CCn2cc(CN(C)Cc3ccco3)nc2C1	27.43%

From ChEMBL document CHEMBL3988442, “University of Dundee, Small-Polar-MMV Screening Library” (2021).